± gives the standard deviation of the averaged measurements. The list shows a part of the results, in another mix than the full data.
Compound: Nc1ncnc2c1ncn2[C@@H]1O[C@H](COP(=O)(O)OP(=O)(O)NP(=O)(O)O)[C@@H](O)[C@H]1O [adenylyl imidodiphosphate]
Assay: NP40-soluble protein abundance relative to vehicle (solubility fold change) (ratio); higher = more soluble protein in presence of AMP-PNP
Outline: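 Jurkat crude lysate prepared with a Dounce homogeniser was treated at eight concentrations spanning 0.1 to 10 mM, 10 min at room temperature then 3 min at 37 °C. Solubilisation with 0.8% NP40 and benzonase and ultracentrifugation preceded TMT labelling of the supernatant for LC-MS/MS. Fold change against the detergent-processed vehicle was determined per replicate from vsn-normalised intensities, across three independent experiments.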

By UniProt entry, the sequences of proteins in these tests, tags left out. Where a name states a change or a piece, a line headed by the entry shows the natural chain unless it says otherwise.
UniProt P27707: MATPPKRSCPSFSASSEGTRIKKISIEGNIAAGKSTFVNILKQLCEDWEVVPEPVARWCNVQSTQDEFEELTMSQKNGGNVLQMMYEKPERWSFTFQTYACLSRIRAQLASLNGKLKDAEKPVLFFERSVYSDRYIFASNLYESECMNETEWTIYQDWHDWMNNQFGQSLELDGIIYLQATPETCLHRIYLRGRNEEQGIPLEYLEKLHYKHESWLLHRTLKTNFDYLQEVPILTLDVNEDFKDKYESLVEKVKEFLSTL
UniProt Q86XS8: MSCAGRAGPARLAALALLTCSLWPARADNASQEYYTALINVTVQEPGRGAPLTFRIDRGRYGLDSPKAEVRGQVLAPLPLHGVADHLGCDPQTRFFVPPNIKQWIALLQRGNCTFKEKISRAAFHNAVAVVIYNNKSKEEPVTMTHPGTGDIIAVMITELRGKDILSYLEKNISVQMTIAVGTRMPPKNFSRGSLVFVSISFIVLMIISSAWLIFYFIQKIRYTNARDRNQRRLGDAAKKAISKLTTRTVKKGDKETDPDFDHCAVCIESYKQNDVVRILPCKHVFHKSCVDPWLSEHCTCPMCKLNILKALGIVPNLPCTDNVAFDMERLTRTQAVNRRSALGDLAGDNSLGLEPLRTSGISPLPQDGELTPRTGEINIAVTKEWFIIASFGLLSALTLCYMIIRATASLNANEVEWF
UniProt O76075: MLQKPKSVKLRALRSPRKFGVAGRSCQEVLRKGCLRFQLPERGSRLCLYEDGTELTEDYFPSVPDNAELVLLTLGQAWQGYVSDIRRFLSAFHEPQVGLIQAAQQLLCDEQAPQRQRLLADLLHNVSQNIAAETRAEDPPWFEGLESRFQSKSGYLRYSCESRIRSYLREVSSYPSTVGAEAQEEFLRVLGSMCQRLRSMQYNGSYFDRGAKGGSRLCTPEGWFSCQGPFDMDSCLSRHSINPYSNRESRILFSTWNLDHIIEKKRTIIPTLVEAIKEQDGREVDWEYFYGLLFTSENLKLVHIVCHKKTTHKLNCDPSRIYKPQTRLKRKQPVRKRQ
UniProt P78317: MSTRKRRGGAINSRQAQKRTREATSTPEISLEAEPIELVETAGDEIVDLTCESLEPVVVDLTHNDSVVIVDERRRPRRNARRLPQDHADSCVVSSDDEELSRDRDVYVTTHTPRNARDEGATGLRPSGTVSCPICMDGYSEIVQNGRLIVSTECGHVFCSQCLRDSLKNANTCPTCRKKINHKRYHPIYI
UniProt Q9UDY4: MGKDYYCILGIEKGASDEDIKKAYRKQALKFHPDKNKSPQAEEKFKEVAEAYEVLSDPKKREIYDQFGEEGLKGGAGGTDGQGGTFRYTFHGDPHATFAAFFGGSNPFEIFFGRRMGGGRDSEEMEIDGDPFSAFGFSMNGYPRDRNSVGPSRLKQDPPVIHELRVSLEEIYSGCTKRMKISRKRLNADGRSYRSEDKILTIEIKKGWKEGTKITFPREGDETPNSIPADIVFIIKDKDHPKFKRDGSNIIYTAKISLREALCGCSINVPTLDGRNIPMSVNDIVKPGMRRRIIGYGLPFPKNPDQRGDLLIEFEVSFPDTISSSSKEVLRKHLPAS
UniProt Q9C0K0: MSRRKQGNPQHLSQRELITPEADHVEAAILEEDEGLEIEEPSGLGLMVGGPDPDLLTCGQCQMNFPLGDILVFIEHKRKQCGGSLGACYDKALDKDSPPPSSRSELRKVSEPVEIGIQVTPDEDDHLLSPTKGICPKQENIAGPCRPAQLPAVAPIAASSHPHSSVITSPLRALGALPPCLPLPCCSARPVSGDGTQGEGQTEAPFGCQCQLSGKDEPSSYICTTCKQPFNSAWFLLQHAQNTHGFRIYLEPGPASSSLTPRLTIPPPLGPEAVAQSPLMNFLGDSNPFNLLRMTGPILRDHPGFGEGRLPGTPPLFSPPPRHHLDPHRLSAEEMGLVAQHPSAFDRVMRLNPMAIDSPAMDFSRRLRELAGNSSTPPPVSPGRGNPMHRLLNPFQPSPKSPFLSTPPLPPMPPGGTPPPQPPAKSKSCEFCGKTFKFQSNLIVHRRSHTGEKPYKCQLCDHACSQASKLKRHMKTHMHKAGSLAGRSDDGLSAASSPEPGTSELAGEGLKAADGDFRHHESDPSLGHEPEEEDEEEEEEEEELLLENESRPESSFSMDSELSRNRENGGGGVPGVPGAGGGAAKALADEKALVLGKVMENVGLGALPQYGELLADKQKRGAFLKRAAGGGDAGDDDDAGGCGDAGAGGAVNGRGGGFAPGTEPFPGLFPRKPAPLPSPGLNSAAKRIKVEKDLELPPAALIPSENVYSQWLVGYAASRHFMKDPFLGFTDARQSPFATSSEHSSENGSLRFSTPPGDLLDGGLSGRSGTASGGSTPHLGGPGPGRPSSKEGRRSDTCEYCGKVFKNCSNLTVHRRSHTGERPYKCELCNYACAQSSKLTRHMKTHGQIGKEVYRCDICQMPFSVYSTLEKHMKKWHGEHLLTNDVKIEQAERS
UniProt Q9Y6G5, whole entry: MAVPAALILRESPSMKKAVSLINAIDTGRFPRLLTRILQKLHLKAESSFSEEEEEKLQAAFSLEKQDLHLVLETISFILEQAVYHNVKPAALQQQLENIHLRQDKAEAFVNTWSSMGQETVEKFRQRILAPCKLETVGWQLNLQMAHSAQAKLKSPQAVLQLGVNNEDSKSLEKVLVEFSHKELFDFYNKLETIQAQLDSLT
UniProt P51610: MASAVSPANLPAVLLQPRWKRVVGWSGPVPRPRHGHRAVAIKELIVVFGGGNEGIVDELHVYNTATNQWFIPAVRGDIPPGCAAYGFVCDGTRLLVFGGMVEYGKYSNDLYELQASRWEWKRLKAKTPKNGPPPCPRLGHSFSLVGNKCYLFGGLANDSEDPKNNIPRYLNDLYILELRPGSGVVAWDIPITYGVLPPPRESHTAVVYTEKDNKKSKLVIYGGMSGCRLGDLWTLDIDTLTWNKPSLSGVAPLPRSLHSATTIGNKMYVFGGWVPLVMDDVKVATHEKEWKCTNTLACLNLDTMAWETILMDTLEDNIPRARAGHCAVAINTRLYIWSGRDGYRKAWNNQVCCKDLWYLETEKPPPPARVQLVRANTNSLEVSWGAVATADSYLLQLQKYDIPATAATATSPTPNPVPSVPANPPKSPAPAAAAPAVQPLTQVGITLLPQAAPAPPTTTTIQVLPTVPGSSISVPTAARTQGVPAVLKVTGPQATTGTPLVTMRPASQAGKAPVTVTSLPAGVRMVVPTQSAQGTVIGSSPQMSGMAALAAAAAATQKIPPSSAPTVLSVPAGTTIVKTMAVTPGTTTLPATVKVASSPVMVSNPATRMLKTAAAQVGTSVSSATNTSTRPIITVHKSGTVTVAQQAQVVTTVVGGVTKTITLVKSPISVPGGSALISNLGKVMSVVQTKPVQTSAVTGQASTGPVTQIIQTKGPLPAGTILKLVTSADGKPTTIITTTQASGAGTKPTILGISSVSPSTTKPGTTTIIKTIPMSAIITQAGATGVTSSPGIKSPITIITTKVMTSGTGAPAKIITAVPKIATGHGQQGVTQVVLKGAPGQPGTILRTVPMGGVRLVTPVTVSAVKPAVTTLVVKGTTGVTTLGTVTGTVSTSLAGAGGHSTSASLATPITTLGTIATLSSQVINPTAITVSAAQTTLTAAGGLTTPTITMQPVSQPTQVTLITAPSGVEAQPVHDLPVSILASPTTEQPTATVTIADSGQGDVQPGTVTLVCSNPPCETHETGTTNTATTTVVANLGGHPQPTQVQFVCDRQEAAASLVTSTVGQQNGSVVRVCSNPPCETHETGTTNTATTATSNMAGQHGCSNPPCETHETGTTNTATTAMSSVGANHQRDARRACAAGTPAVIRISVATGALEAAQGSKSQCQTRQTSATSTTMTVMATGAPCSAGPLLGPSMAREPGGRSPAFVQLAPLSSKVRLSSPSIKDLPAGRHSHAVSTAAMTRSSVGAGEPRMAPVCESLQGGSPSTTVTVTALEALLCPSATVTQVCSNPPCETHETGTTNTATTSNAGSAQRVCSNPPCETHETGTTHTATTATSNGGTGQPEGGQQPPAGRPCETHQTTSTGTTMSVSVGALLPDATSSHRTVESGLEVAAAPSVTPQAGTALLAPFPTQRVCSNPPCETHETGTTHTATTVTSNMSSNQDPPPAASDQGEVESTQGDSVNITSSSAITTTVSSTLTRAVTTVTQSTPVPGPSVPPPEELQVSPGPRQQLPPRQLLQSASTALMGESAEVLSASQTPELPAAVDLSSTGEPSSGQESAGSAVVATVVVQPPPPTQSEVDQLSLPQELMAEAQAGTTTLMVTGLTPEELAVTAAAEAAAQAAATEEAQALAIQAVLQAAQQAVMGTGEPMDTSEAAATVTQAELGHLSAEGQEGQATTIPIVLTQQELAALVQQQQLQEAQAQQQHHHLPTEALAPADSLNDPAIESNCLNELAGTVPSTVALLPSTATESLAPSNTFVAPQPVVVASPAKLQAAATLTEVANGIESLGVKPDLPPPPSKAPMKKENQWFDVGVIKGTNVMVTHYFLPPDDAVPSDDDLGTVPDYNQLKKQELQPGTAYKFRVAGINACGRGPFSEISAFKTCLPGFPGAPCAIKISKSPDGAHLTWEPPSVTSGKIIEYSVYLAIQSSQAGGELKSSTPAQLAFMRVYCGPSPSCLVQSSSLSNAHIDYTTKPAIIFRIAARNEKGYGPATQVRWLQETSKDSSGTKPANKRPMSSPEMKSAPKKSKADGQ
UniProt P11142, whole entry, looked up: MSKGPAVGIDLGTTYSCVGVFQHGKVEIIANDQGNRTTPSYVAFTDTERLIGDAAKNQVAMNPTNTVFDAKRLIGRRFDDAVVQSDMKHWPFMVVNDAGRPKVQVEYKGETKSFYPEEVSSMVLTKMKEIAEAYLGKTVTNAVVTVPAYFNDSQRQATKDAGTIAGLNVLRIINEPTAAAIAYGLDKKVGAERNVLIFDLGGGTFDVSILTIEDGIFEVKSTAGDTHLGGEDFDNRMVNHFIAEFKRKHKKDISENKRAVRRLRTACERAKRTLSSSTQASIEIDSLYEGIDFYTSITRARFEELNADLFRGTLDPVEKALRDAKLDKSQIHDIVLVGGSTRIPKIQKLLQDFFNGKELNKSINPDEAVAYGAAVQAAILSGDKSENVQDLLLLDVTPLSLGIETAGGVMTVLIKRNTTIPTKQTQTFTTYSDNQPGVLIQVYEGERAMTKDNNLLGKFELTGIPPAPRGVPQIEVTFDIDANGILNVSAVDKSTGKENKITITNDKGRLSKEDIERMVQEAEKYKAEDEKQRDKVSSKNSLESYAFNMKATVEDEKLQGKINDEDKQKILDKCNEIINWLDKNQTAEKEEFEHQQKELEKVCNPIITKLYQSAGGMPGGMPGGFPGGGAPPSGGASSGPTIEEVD
UniProt P43487, whole entry: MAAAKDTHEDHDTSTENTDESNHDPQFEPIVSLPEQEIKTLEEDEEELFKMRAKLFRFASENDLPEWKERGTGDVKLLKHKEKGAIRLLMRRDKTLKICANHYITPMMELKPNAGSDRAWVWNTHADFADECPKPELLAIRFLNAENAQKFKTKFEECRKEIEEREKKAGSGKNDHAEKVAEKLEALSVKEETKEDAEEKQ
UniProt O14832: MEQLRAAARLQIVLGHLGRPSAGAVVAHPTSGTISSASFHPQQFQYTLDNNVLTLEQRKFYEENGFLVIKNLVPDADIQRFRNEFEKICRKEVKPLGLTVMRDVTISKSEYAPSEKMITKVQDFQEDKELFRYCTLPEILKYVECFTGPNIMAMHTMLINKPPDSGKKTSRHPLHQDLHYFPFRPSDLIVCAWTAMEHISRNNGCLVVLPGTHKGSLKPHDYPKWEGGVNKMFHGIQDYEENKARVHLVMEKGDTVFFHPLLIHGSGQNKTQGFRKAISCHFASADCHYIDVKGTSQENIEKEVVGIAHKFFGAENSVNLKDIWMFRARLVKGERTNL
UniProt Q9Y2S7: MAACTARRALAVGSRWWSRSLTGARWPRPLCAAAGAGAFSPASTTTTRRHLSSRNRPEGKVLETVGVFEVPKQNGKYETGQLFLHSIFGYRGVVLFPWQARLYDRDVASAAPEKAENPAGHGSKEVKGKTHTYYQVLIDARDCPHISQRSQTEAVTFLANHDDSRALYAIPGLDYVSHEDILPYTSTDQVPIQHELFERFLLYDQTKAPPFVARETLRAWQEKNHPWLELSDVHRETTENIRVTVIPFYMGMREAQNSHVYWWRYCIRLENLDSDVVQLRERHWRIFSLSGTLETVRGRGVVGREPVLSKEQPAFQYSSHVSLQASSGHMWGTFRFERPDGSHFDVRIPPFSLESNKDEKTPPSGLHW

## D6R9C6 and related entries (UniProt P27707)
concentration: 1mM
  NP40-soluble protein abundance: 1.01 ± 0.017
concentration: 2mM
  NP40-soluble protein abundance: 0.972 ± 0.03
concentration: 4mM
  NP40-soluble protein abundance: 0.998 ± 0.02
concentration: 6mM
  NP40-soluble protein abundance: 1.05 ± 0.083
concentration: 8mM
  NP40-soluble protein abundance: 1.06 ± 0.056
concentration: 10mM
  NP40-soluble protein abundance: 1.05 ± 0.04

## B1AKN5 and related entries (UniProt Q12857)
concentration: 1mM
  NP40-soluble protein abundance: 1.05 ± 0.066
concentration: 2mM
  NP40-soluble protein abundance: 1.04 ± 0.08
concentration: 4mM
  NP40-soluble protein abundance: 1.04 ± 0.078
concentration: 6mM
  NP40-soluble protein abundance: 1.07 ± 0.066
concentration: 8mM
  NP40-soluble protein abundance: 1.06 ± 0.097
concentration: 10mM
  NP40-soluble protein abundance: 1.1 ± 0.087

## E5RI87 and related entries (UniProt Q86XS8)
concentration: 1mM
  NP40-soluble protein abundance: 1.02 ± 0.011
concentration: 2mM
  NP40-soluble protein abundance: 1 ± 0.012
concentration: 4mM
  NP40-soluble protein abundance: 1.03 ± 0.035
concentration: 6mM
  NP40-soluble protein abundance: 1.05 ± 0.019
concentration: 8mM
  NP40-soluble protein abundance: 1.11 ± 0.034
concentration: 10mM
  NP40-soluble protein abundance: 1.03 ± 0.061

## D6RD47 and related entries (UniProt P62266)
concentration: 1mM
  NP40-soluble protein abundance: 0.977 ± 0.053
concentration: 2mM
  NP40-soluble protein abundance: 0.934 ± 0.072
concentration: 4mM
  NP40-soluble protein abundance: 0.901 ± 0.11
concentration: 6mM
  NP40-soluble protein abundance: 0.893 ± 0.094
concentration: 8mM
  NP40-soluble protein abundance: 0.87 ± 0.13
concentration: 10mM
  NP40-soluble protein abundance: 0.937 ± 0.21

## B4DZS0 and related entries (UniProt O76075)
concentration: 1mM
  NP40-soluble protein abundance: 0.944 ± 0.021
concentration: 2mM
  NP40-soluble protein abundance: 0.924 ± 0.048
concentration: 4mM
  NP40-soluble protein abundance: 0.933 ± 0.016
concentration: 6mM
  NP40-soluble protein abundance: 0.948 ± 0.054
concentration: 8mM
  NP40-soluble protein abundance: 0.982 ± 0.018
concentration: 10mM
  NP40-soluble protein abundance: 0.959 ± 0.029

## A8MZH8 and related entries (UniProt P53801)
concentration: 1mM
  NP40-soluble protein abundance: 1.017 ± 0.0061
concentration: 2mM
  NP40-soluble protein abundance: 1.09 ± 0.13
concentration: 4mM
  NP40-soluble protein abundance: 1.05 ± 0.018
concentration: 6mM
  NP40-soluble protein abundance: 1.07 ± 0.062
concentration: 8mM
  NP40-soluble protein abundance: 1.11 ± 0.058
concentration: 10mM
  NP40-soluble protein abundance: 1.09 ± 0.033

## D6RBY0 and related entries (UniProt Q8TAC1)
concentration: 1mM
  NP40-soluble protein abundance: 0.9904 ± 0.0088
concentration: 2mM
  NP40-soluble protein abundance: 0.968 ± 0.033
concentration: 4mM
  NP40-soluble protein abundance: 0.974 ± 0.018
concentration: 6mM
  NP40-soluble protein abundance: 0.993 ± 0.02
concentration: 8mM
  NP40-soluble protein abundance: 1.01 ± 0.026
concentration: 10mM
  NP40-soluble protein abundance: 0.996 ± 0.0093

## D6RA71 and related entries (UniProt P78317)
concentration: 1mM
  NP40-soluble protein abundance: 0.978 ± 0.021
concentration: 2mM
  NP40-soluble protein abundance: 1 ± 0.031
concentration: 4mM
  NP40-soluble protein abundance: 1.03 ± 0.044
concentration: 6mM
  NP40-soluble protein abundance: 0.997 ± 0.035
concentration: 8mM
  NP40-soluble protein abundance: 0.979 ± 0.048
concentration: 10mM
  NP40-soluble protein abundance: 0.996 ± 0.04

## C9JUL4 and related entries (UniProt Q9UDY4)
concentration: 1mM
  NP40-soluble protein abundance: 0.973 ± 0.038
concentration: 2mM
  NP40-soluble protein abundance: 0.94 ± 0.041
concentration: 4mM
  NP40-soluble protein abundance: 0.966 ± 0.016
concentration: 6mM
  NP40-soluble protein abundance: 0.988 ± 0.04
concentration: 8mM
  NP40-soluble protein abundance: 0.974 ± 0.014
concentration: 10mM
  NP40-soluble protein abundance: 0.96914 ± 0.00066

## C9JKL2 and related entries (UniProt O95772)
concentration: 1mM
  NP40-soluble protein abundance: 1.02 ± 0.019
concentration: 2mM
  NP40-soluble protein abundance: 1.04 ± 0.036
concentration: 4mM
  NP40-soluble protein abundance: 1.01 ± 0.016
concentration: 6mM
  NP40-soluble protein abundance: 0.989 ± 0.028
concentration: 8mM
  NP40-soluble protein abundance: 0.989 ± 0.019
concentration: 10mM
  NP40-soluble protein abundance: 1 ± 0.034

## D6RER5 and related entries (UniProt Q9NVA2)
concentration: 1mM
  NP40-soluble protein abundance: 1.01 ± 0.024
concentration: 2mM
  NP40-soluble protein abundance: 1.005 ± 0.0071
concentration: 4mM
  NP40-soluble protein abundance: 0.964 ± 0.024
concentration: 6mM
  NP40-soluble protein abundance: 0.987 ± 0.023
concentration: 8mM
  NP40-soluble protein abundance: 0.9861 ± 0.0047
concentration: 10mM
  NP40-soluble protein abundance: 0.994 ± 0.025

## D3YTK1 and related entries (UniProt Q9C0K0)
concentration: 1mM
  NP40-soluble protein abundance: 1.04 ± 0.087
concentration: 2mM
  NP40-soluble protein abundance: 1.07 ± 0.027
concentration: 4mM
  NP40-soluble protein abundance: 1.05 ± 0.084
concentration: 6mM
  NP40-soluble protein abundance: 1 ± 0.08
concentration: 8mM
  NP40-soluble protein abundance: 0.969 ± 0.049
concentration: 10mM
  NP40-soluble protein abundance: 1.01 ± 0.069

## B4DJL6 and related entries (UniProt Q96SY0)
concentration: 1mM
  NP40-soluble protein abundance: 1.005 ± 0.0035
concentration: 2mM
  NP40-soluble protein abundance: 0.998 ± 0.022
concentration: 4mM
  NP40-soluble protein abundance: 1.04 ± 0.029
concentration: 6mM
  NP40-soluble protein abundance: 1.02 ± 0.042
concentration: 8mM
  NP40-soluble protein abundance: 1.01 ± 0.015
concentration: 10mM
  NP40-soluble protein abundance: 1.04 ± 0.038

## A8MTY9 and related entries (UniProt O14972)
concentration: 1mM
  NP40-soluble protein abundance: 0.984 ± 0.021
concentration: 2mM
  NP40-soluble protein abundance: 0.941 ± 0.071
concentration: 4mM
  NP40-soluble protein abundance: 0.978 ± 0.03
concentration: 6mM
  NP40-soluble protein abundance: 0.987 ± 0.024
concentration: 8mM
  NP40-soluble protein abundance: 0.987 ± 0.061
concentration: 10mM
  NP40-soluble protein abundance: 0.956 ± 0.071

## A9IYQ1 and related entries (UniProt Q9NTI5)
concentration: 1mM
  NP40-soluble protein abundance: 1.004 ± 0.0096
concentration: 2mM
  NP40-soluble protein abundance: 1.009 ± 0.0055
concentration: 4mM
  NP40-soluble protein abundance: 1.02 ± 0.011
concentration: 6mM
  NP40-soluble protein abundance: 1.05 ± 0.032
concentration: 8mM
  NP40-soluble protein abundance: 1.05 ± 0.028
concentration: 10mM
  NP40-soluble protein abundance: 1.05 ± 0.018

## A8MX75 and related entries (UniProt P18074)
concentration: 1mM
  NP40-soluble protein abundance: 0.981 ± 0.039
concentration: 2mM
  NP40-soluble protein abundance: 0.923 ± 0.084
concentration: 4mM
  NP40-soluble protein abundance: 1 ± 0.038
concentration: 6mM
  NP40-soluble protein abundance: 0.969 ± 0.042
concentration: 8mM
  NP40-soluble protein abundance: 1 ± 0.027
concentration: 10mM
  NP40-soluble protein abundance: 0.926 ± 0.023

## D6RC04 and related entries (UniProt Q9Y6G5)
concentration: 1mM
  NP40-soluble protein abundance: 0.97 ± 0.04
concentration: 2mM
  NP40-soluble protein abundance: 0.987 ± 0.037
concentration: 4mM
  NP40-soluble protein abundance: 0.999 ± 0.026
concentration: 6mM
  NP40-soluble protein abundance: 0.975 ± 0.04
concentration: 8mM
  NP40-soluble protein abundance: 0.988 ± 0.016
concentration: 10mM
  NP40-soluble protein abundance: 0.96 ± 0.018

## A6NEM2 and related entries (UniProt P51610)
concentration: 1mM
  NP40-soluble protein abundance: 1.02 ± 0.028
concentration: 2mM
  NP40-soluble protein abundance: 1.06 ± 0.028
concentration: 4mM
  NP40-soluble protein abundance: 1.03 ± 0.015
concentration: 6mM
  NP40-soluble protein abundance: 1.06 ± 0.012
concentration: 8mM
  NP40-soluble protein abundance: 1.03 ± 0.011
concentration: 10mM
  NP40-soluble protein abundance: 1.076 ± 0.01

## A8K7Q2 and related entries (UniProt P11142)
concentration: 1mM
  NP40-soluble protein abundance: 1.04 ± 0.037
concentration: 2mM
  NP40-soluble protein abundance: 1.06 ± 0.014
concentration: 4mM
  NP40-soluble protein abundance: 1.02 ± 0.036
concentration: 6mM
  NP40-soluble protein abundance: 1 ± 0.05
concentration: 8mM
  NP40-soluble protein abundance: 1 ± 0.034
concentration: 10mM
  NP40-soluble protein abundance: 1.01 ± 0.043

## C9JJ34 and related entries (UniProt P43487)
concentration: 1mM
  NP40-soluble protein abundance: 0.989 ± 0.066
concentration: 2mM
  NP40-soluble protein abundance: 1.03 ± 0.081
concentration: 4mM
  NP40-soluble protein abundance: 0.924 ± 0.067
concentration: 6mM
  NP40-soluble protein abundance: 0.903 ± 0.02
concentration: 8mM
  NP40-soluble protein abundance: 0.911 ± 0.025
concentration: 10mM
  NP40-soluble protein abundance: 0.871 ± 0.05

## B1ALH6 and related entries (UniProt O14832)
concentration: 1mM
  NP40-soluble protein abundance: 0.99 ± 0.012
concentration: 2mM
  NP40-soluble protein abundance: 1.02 ± 0.048
concentration: 4mM
  NP40-soluble protein abundance: 0.971 ± 0.032
concentration: 6mM
  NP40-soluble protein abundance: 0.963 ± 0.039
concentration: 8mM
  NP40-soluble protein abundance: 0.956 ± 0.041
concentration: 10mM
  NP40-soluble protein abundance: 0.951 ± 0.029

## B4DEM9 and related entries (UniProt Q9Y2S7)
concentration: 1mM
  NP40-soluble protein abundance: 0.969 ± 0.048
concentration: 2mM
  NP40-soluble protein abundance: 0.916 ± 0.047
concentration: 4mM
  NP40-soluble protein abundance: 0.961 ± 0.039
concentration: 6mM
  NP40-soluble protein abundance: 0.942 ± 0.029
concentration: 8mM
  NP40-soluble protein abundance: 0.961 ± 0.029
concentration: 10mM
  NP40-soluble protein abundance: 0.927 ± 0.038

Source: the supplement of paper PMC6411743
